PubChem BioAssay AID2685 (National Center for Advancing Translational Sciences (NCATS), 2010)
Out of some 320,000 compounds screened, about 2,100 (0.66%) were called active. The call rests on the fitted dose curve; in most records, active means well fitted inhibition curve with a large enough effect in the signal ratio, with a control signal flat (not every such curve was filed as active); inconclusive means small, poorly fitted or top-dose-only effect, or effect the other way, or a change in a side signal; inactive means flat fitted curve, though single readings scatter; the % refers to the signal ratio. The inconclusive results got no clear call from the source. Potencies beside an inconclusive call are fits to weak or partial responses and may not hold up.

Test: qHTS Assay for Lipid Storage Modulators in Drosophila S3 Cells
Conditions: BODIPY lipid droplet fluorescence, 18-24 h, cells fed with added oleic acid; lipid storage change, negative = inhibition: at 46.1 µM (top of the series) unless noted
Procedure, shortened: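 Laser-scanning cytometry quantifies lipid droplet accumulation (500–530 nm total intensity; droplet/cell object ratio) in oleic acid-fed (400 uM added) Drosophila S3 cells treated with a concentration series. 20 uM Triacsin C defined 100% inhibition.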
On the % scale 0 is the no-effect control and ±100 the full control effect; potency means the concentration at half of the fitted maximal effect.

Lipid storage change, negative = inhibition, inconclusive:
Cc1ccn(CC(=O)N2CCCC(N3CCN(c4ccccc4F)CC3)C2)n1 (configuration not stated) 33%
O=C1c2ccccc2C(=O)N1/N=C/c1ccc(O)c(O)c1O 12.2%
CCOC(=O)C1CCCN(C(=O)CCNS(=O)(=O)c2ccc(Br)cc2)C1 (configuration not stated) -4.57%
Cc1ccc(C)c(N2CCN(C(=O)c3ccc(N4CCCC4=O)cc3)CC2)c1 13.7%
CCOc1cc(/C=N/NC(=O)Cc2ccc(C(F)(F)F)cc2[N+](=O)[O-])ccc1O 30.9%
Cc1ccc2c(c1)c1c3n2CCCN(Cc2ccccc2)C3CCC1 (configuration not stated) -2.01%
CCOC(=O)NC(=O)c1cn(C(CC)CO)c(=O)[nH]c1=O (configuration not stated) 5.02%
CN(Cc1nc2ccccc2c(=O)[nH]1)C(=O)c1cccc(S(=O)(=O)N2CCCCCC2)c1 -20%
CCN(CC)C(=O)CSc1nnc(-c2ccc(S(=O)(=O)N3CCOCC3)cc2)n1C 65.9%
Cc1ccc(-n2ccc(=O)c(C(=O)O)n2)cc1 37.2%
CC(=O)NCCNC(=O)c1cccc(NS(=O)(=O)c2ccc3c(c2)OCCO3)c1
COc1cc(/C=C(\C#N)C(=O)Nc2cccc3ncccc23)cc(OC)c1OC 41.7%
CC1(C)CC(=O)C=C(Nc2cccc(O)c2)C1 95.8%
Cn1cc([N+](=O)[O-])c(C(=O)Nc2ccc(C3CCCCC3)cc2)n1 -29.5%
CCOC(=O)Cc1c[nH]c2ccccc12 15.6%
CC(C)[C@H](NC(=O)[C@@H]1CSCN1C(=O)OC(C)(C)C)C(=O)NCC1CCC(C(=O)O)CC1 (some centres not stated) -51.7%
Cc1cc(C)n(C(=O)c2ccncc2)n1 -17.7%

Ordered by formula weight (ascending): some entries from above.
Lipid storage change, negative = inhibition, inconclusive:
CCOc1cc(/C=N/NC(=O)Cc2ccc(C(F)(F)F)cc2[N+](=O)[O-])ccc1O 30.9%
CCOC(=O)C1CCCN(C(=O)CCNS(=O)(=O)c2ccc(Br)cc2)C1 (configuration not stated) -4.57%
CN(Cc1nc2ccccc2c(=O)[nH]1)C(=O)c1cccc(S(=O)(=O)N2CCCCCC2)c1 -20%

Next part:

Potency, inconclusive:
O=C(c1cccs1)n1nc(NCc2ccccc2)nc1NCc1ccccc1 0.517 µM [rising, full curve]
CN(Cc1cccc(F)c1)C(=O)c1ccc(S(=O)(=O)N2CCOCC2)cc1 8.2 µM [falling, partial curve]
Nc1cc(C(=O)OCC(=O)NCCNC(=O)COC(=O)c2ccc(Cl)c(N)c2)ccc1Cl 3.26 µM [activator, single point]
Cc1ccc(Sc2ncnc(N)c2[N+](=O)[O-])cc1 11.6 µM [falling, partial curve, poor fit]
CC(C)C[C@H](NC(=O)c1nc[nH]c1C(=O)NCCCCCNC(=O)OC(C)(C)C)C(=O)OCc1ccccc1 32.6 µM [falling, single point]
